Laboratory results taken from the supplement of paper PMC10849652.
This is one part of the list.

The chains behind the UniProt entries cited, without tags or fusion partners. Where a name states a change or a piece, a line headed by the entry shows the natural chain unless it says otherwise.
UniProt Q8IVM0: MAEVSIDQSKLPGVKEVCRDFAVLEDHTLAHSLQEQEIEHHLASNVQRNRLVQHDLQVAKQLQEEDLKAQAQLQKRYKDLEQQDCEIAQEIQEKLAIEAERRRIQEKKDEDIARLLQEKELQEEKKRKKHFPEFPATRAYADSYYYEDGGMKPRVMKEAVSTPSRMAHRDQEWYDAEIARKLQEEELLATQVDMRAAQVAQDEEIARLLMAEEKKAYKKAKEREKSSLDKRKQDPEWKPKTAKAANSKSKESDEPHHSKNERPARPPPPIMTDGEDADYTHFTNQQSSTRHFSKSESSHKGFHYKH
UniProt Q9P0B6: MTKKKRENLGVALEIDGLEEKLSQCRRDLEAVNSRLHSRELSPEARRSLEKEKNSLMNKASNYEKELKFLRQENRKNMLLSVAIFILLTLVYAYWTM
UniProt P49427: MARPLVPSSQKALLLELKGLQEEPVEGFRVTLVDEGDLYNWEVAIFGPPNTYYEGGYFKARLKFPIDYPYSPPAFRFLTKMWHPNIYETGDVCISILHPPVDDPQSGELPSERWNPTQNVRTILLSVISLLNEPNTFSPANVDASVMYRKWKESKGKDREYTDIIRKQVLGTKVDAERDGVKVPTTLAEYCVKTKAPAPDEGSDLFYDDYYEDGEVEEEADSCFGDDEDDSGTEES
UniProt Q99832: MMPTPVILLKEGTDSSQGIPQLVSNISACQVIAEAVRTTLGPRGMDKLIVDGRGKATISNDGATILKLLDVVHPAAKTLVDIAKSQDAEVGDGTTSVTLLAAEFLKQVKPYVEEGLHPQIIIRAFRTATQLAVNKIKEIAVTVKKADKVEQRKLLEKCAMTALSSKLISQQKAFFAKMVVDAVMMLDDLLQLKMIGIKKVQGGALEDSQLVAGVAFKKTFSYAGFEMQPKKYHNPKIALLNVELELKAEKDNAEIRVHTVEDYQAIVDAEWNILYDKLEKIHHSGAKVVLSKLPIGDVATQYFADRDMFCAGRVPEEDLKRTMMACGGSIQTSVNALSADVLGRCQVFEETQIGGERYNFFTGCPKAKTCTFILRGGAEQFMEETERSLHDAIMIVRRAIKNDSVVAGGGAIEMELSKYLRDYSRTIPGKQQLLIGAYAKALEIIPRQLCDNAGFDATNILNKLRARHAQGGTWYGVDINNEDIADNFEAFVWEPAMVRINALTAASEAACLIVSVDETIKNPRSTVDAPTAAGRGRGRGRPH
UniProt Q96NT0: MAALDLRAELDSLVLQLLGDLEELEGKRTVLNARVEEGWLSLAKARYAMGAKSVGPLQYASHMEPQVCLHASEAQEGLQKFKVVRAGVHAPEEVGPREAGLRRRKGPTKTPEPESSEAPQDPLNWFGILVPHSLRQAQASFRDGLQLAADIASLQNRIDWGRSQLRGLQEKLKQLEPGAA
UniProt Q9P031: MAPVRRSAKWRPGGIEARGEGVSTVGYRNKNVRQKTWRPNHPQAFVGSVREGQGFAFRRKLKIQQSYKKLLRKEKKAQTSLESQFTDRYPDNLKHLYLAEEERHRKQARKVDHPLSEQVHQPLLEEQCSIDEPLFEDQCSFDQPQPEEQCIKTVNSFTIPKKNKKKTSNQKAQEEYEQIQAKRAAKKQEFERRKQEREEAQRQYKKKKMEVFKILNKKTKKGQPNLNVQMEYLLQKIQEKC
UniProt Q9NPF0: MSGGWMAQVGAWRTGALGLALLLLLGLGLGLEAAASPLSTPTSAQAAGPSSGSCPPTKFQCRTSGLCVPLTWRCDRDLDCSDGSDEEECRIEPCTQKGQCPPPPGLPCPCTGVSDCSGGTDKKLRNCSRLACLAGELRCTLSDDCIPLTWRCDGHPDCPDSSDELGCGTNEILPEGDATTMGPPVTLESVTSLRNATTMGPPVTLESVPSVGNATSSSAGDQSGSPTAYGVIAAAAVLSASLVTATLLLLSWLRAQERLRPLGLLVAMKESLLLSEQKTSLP
UniProt O95810: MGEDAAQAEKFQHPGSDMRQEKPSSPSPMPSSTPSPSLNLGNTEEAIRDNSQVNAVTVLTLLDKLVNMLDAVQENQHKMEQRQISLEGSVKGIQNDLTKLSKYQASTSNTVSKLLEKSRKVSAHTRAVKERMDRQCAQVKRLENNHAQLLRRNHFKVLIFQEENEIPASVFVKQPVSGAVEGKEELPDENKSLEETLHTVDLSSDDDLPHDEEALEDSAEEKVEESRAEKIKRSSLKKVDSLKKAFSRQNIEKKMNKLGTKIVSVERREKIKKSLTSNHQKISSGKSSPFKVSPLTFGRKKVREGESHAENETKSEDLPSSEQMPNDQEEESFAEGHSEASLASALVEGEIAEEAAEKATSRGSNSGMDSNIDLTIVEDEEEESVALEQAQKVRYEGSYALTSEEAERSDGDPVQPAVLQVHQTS
UniProt P50990: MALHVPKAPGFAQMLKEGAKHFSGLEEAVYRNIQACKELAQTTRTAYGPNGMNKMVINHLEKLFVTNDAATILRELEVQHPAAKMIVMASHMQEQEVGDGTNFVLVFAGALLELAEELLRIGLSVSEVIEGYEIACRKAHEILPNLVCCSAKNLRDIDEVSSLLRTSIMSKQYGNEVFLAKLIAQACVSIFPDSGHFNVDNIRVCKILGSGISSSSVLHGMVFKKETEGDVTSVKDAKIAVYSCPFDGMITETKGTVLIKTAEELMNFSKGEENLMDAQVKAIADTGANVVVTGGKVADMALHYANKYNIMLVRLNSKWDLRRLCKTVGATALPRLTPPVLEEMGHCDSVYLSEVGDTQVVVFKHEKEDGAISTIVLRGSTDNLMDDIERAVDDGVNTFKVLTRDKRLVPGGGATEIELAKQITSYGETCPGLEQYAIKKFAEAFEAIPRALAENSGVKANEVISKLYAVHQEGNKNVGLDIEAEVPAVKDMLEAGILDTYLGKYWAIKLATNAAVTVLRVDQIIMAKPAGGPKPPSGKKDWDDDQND
UniProt P19397: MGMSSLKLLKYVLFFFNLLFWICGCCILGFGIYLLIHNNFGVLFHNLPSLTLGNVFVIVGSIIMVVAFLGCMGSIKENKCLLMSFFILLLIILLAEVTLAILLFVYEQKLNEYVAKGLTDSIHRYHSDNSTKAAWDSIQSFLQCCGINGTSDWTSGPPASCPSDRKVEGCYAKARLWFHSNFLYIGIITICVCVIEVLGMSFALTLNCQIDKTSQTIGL
UniProt P60033: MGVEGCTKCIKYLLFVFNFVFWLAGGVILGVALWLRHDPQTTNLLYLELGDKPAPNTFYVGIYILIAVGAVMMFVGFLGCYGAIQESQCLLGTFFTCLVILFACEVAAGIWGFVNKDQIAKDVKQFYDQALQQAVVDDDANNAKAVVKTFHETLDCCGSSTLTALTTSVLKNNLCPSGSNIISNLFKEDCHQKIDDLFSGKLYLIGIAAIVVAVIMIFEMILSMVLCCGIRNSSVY
UniProt Q5T0F9: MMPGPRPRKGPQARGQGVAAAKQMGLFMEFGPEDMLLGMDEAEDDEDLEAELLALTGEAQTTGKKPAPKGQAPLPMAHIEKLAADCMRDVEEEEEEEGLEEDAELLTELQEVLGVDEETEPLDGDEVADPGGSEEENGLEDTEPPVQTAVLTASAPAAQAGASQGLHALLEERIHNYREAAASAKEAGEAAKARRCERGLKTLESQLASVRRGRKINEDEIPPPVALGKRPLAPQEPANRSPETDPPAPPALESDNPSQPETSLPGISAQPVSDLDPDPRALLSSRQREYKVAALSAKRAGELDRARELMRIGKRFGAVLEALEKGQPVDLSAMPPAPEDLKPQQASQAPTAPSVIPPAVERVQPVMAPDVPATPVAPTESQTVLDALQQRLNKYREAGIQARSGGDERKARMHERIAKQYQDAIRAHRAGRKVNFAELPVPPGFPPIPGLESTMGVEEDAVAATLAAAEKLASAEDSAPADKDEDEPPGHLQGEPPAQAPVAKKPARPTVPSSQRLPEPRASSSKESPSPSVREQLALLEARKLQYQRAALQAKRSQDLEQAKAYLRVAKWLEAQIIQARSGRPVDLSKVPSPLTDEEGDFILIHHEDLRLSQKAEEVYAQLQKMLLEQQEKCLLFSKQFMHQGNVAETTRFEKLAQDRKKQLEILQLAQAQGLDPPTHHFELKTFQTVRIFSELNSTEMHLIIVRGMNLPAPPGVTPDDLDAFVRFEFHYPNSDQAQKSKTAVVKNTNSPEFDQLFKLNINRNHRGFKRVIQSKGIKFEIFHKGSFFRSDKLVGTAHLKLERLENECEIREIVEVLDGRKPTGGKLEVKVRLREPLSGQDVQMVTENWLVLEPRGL
UniProt Q3V6T2: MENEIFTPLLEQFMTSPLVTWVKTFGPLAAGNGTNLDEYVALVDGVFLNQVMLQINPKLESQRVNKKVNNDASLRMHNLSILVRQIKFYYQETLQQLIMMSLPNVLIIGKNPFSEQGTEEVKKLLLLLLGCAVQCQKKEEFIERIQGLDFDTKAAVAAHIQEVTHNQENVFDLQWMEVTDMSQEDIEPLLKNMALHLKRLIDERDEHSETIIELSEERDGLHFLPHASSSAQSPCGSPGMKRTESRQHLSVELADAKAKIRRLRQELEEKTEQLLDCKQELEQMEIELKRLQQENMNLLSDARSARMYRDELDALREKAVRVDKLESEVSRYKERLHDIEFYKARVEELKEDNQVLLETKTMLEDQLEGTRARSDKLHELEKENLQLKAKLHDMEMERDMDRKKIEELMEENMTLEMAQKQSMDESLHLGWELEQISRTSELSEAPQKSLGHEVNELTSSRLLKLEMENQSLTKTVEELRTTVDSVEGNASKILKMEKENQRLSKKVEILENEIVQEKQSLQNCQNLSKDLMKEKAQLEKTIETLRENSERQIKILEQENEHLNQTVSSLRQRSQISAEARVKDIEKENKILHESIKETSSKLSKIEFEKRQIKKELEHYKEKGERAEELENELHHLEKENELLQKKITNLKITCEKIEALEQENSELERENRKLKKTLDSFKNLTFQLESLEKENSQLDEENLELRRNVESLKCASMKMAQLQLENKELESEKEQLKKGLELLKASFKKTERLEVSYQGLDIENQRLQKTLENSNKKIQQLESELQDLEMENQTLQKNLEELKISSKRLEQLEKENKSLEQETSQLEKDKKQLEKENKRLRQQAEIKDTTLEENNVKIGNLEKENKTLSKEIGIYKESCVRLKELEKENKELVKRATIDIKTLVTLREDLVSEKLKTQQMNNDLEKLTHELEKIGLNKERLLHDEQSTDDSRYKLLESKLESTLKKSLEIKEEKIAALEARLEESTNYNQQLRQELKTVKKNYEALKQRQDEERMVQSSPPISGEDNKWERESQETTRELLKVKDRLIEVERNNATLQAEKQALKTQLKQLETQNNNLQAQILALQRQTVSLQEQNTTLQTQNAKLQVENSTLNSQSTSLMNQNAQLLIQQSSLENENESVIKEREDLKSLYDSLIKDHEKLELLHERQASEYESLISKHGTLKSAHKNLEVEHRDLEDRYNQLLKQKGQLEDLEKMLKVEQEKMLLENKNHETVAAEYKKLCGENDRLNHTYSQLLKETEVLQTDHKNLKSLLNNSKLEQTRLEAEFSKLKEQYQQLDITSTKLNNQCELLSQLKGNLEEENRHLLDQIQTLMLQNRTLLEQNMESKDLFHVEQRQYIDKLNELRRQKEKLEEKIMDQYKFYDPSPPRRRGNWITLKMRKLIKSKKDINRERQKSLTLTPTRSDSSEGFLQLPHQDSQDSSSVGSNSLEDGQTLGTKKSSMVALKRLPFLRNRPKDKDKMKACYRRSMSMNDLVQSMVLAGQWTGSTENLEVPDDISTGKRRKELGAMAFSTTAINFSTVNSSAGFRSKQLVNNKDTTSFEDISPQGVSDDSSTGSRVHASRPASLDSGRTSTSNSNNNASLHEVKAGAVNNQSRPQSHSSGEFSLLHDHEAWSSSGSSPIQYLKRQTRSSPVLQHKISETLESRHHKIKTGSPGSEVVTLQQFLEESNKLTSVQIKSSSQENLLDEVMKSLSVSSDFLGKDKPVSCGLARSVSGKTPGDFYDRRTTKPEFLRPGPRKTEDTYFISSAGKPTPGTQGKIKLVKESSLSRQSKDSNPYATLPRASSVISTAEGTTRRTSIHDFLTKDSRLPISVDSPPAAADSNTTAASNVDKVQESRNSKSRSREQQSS
UniProt O95067, whole entry, looked up: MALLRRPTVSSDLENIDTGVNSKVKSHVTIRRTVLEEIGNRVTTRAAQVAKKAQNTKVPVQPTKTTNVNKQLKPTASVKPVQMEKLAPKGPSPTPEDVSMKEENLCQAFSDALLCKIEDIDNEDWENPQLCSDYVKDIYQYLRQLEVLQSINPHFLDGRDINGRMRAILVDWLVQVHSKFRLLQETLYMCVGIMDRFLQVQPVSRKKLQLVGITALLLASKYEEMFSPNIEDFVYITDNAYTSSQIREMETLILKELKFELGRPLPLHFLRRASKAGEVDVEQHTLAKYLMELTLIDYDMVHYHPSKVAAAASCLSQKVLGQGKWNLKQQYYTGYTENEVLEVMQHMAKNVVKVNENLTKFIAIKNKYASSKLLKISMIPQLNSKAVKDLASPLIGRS

Columns and labels:
Experiment in all cases: log2 fold change, soluble protein after heating vs DMSO (PISA); higher = thermal stabilisation; K562 cells, 10 uM, 30 min; active = over 0.2 and 3.5 SD of the protein, either way, in both replicates (recomputed)
bafetinib = compound: Cc1ccc(NC(=O)c2ccc(CN3CC[C@H](N(C)C)C3)c(C(F)(F)F)c2)cc1Nc1nccc(-c2cncnc2)n1 [bafetinib]
Procedure, shortened: (§1)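 K562 cells at 2×10^6 cells/mL were treated with 10 μM compound for 30 min. Aliquots were heated for 3 min across 48°C-58°C, pooled, and extracted in PBS with 0.5% NP-40 at 4°C; soluble protein was the supernatant after 21,000xg for 90 min. Soluble protein was quantified by TMTpro 16plex LC-MS/MS with channel sums equalised, and reported as log2 fold change in thermal stability against DMSO controls, with values from duplicates.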

[1] = compound: Cc1cccc(CC(=O)N2CCc3c2ccc(-c2cn(C)c4ncnc(N)c24)c3F)n1
Procedure, shortened: as §1

nilotinib = compound: Cc1cn(-c2cc(NC(=O)c3ccc(C)c(Nc4nccc(-c5cccnc5)n4)c3)cc(C(F)(F)F)c2)cn1 [nilotinib]
Procedure, shortened: as §1

[2] = compound: Cc1nc(Nc2n[nH]c3c2CN(C(=O)N[C@H](CN(C)C)c2ccccc2)C3(C)C)c2sccc2n1
Procedure, shortened: as §1

dasatinib = compound: Cc1nc(Nc2ncc(C(=O)Nc3c(C)cccc3Cl)s2)cc(N2CCN(CCO)CC2)n1 [dasatinib]
Procedure, shortened: as §1

[3] = compound: Cc1ncc(-c2ccnc(Nc3ccc(S(C)(=O)=O)cc3)n2)n1C(C)C
Procedure, shortened: as §1

[4] = compound: Cn1cc(-c2ccc3c(c2)CCN3C(=O)Cc2cccc(C(F)(F)F)c2)c2c(N)ncnc21
Procedure, shortened: as §1

[5] = compound: Cn1cc(-c2ccc3nnc(C(F)(F)c4ccc5ncccc5c4)n3n2)cn1
Procedure, shortened: as §1

tipifarnib = compound: Cn1cncc1[C@@](N)(c1ccc(Cl)cc1)c1ccc2c(c1)c(-c1cccc(Cl)c1)cc(=O)n2C [tipifarnib]
Procedure, shortened: as §1

mubritinib = compound: FC(F)(F)c1ccc(/C=C/c2nc(COc3ccc(CCCCn4ccnn4)cc3)co2)cc1 [mubritinib]
Procedure, shortened: as §1

[6] = compound: NC(=O)Nc1cc(-c2cccc(F)c2)sc1C(=O)N[C@H]1CCCNC1
Procedure, shortened: as §1

[7] = compound: NC(=O)c1cnc(N[C@@H]2CCCC[C@@H]2N)nc1Nc1cccc(-n2nccn2)c1
Procedure, shortened: as §1

[8] = compound: NC1(c2ccc(-c3nc4ccn5c(=O)[nH]nc5c4cc3-c3ccccc3)cc2)CCC1
Procedure, shortened: as §1

[9] = compound: NCC(=O)Nc1ccc(-n2nc(C(F)(F)F)cc2-c2ccc3c(ccc4ccccc43)c2)cc1
Procedure, shortened: as §1

entinostat = compound: Nc1ccccc1NC(=O)c1ccc(CNC(=O)OCc2cccnc2)cc1 [entinostat]
Procedure, shortened: as §1

vorinostat = compound: O=C(CCCCCCC(=O)Nc1ccccc1)NO [vorinostat]
Procedure, shortened: as §1

citarinostat = compound: O=C(CCCCCCNC(=O)c1cnc(N(c2ccccc2)c2ccccc2Cl)nc1)NO [citarinostat]
Procedure, shortened: as §1

silmitasertib = compound: O=C(O)c1ccc2c(c1)nc(Nc1cccc(Cl)c1)c1ccncc12 [silmitasertib]
Procedure, shortened: as §1

[10] = compound: O=C1NC(=O)C(c2cnc3ccccn23)=C1c1cn2c3c(cc(F)cc13)CN(C(=O)N1CCCCC1)CC2
Procedure, shortened: as §1

[11] = compound: c1cc(OCCN2CCCCC2)cc(-c2n[nH]c3ccc(-c4nnc[nH]4)cc23)c1
Procedure, shortened: as §1

Measured: log2 fold change

CCDC50 (UniProt Q8IVM0)
inactive: bafetinib -0.017 | [1] 0.002 | nilotinib 0.024 | [2] 0 | dasatinib 0.01 | [3] 0.034 | [4] -0.006 | [5] -0.01 | tipifarnib -0.003 | mubritinib 0.036 | [6] -0.05 | [7] -0.004 | [8] -0.023 | [9] -0.022 | entinostat -0.032 | vorinostat -0.004 | citarinostat 0.002 | silmitasertib -0.023 | [10] 0.189 | [11] -0.033

CCDC167 (UniProt Q9P0B6)
inactive: bafetinib -0.024 | [1] -0.057 | nilotinib -0.03 | [2] -0.035 | dasatinib 0.193 | [3] 0.026 | [4] -0.185 | [5] -0.018 | tipifarnib 0.142 | mubritinib -0.043 | [6] 0.014 | [8] 0.046 | entinostat 0.031 | vorinostat 0.008 | citarinostat -0.014 | silmitasertib 0.135 | [10] 0.038 | [11] 0.009

CDC34 (UniProt P49427)
inactive: bafetinib -0.018 | [1] 0.108 | nilotinib -0.203 | [2] -0.176 | dasatinib -0.133 | [3] -0.042 | [4] -0.024 | [5] 0.07 | tipifarnib -0.018 | mubritinib -0.088 | [6] -0.035 | [7] -0.286 | [8] -0.337 | [9] -0.211 | entinostat 0.165 | vorinostat 0.211 | citarinostat 0.051 | silmitasertib 0.035 | [10] -0.083 | [11] -0.076

CCT7 (UniProt Q99832)
inactive: bafetinib 0.046 | [1] 0.036 | nilotinib -0.027 | [2] 0.022 | dasatinib 0.022 | [3] 0.004 | [4] 0.025 | [5] 0.001 | tipifarnib 0.021 | mubritinib -0.02 | [6] 0.023 | [7] 0.001 | [8] 0.005 | [9] 0.026 | entinostat 0.004 | vorinostat 0.019 | citarinostat 0 | silmitasertib -0.04 | [10] 0.044 | [11] -0.03

CCDC115 (UniProt Q96NT0)
inactive: bafetinib -0.094 | [1] -0.063 | nilotinib 0.001 | [2] -0.005 | dasatinib -0.003 | [3] -0.038 | [4] 0.037 | [5] 0.013 | tipifarnib 0.023 | mubritinib 0.05 | [6] 0.035 | [7] 0.089 | [8] -0.007 | [9] -0.004 | entinostat 0.01 | vorinostat -0.002 | citarinostat 0.07 | silmitasertib -0.035 | [10] -0.047 | [11] 0.005

CCDC59 (UniProt Q9P031)
inactive: bafetinib 0.117 | [1] -0.041 | nilotinib 0.032 | [2] 0.048 | dasatinib 0.037 | [3] 0.028 | [4] -0.277 | [5] -0.13 | tipifarnib 0.09 | mubritinib -0.056 | [6] -0.033 | [7] 0.122 | [8] 0.166 | [9] 0.139 | entinostat -0.149 | vorinostat -0.099 | citarinostat -0.178 | silmitasertib 0.154 | [10] 0.21 | [11] 0.07

Random excerpt: 2 entries already listed.
CCDC167 (UniProt Q9P0B6)
inactive: bafetinib -0.024 | [1] -0.057 | nilotinib -0.03 | [2] -0.035 | dasatinib 0.193 | [3] 0.026 | [4] -0.185 | [5] -0.018 | tipifarnib 0.142 | mubritinib -0.043 | [6] 0.014 | [8] 0.046 | entinostat 0.031 | vorinostat 0.008 | citarinostat -0.014 | silmitasertib 0.135 | [10] 0.038 | [11] 0.009

CCDC115 (UniProt Q96NT0)
inactive: bafetinib -0.094 | [1] -0.063 | nilotinib 0.001 | [2] -0.005 | dasatinib -0.003 | [3] -0.038 | [4] 0.037 | [5] 0.013 | tipifarnib 0.023 | mubritinib 0.05 | [6] 0.035 | [7] 0.089 | [8] -0.007 | [9] -0.004 | entinostat 0.01 | vorinostat -0.002 | citarinostat 0.07 | silmitasertib -0.035 | [10] -0.047 | [11] 0.005

Further results:

CD320 (UniProt Q9NPF0)
inactive: bafetinib -0.063 | [1] -0.046 | nilotinib 0.016 | [2] 0.008 | dasatinib -0.004 | [3] 0.027 | [4] 0.065 | [5] -0.005 | tipifarnib 0.064 | mubritinib 0.037 | [6] -0.005 | [7] -0.02 | [8] -0.069 | [9] -0.038 | entinostat -0.015 | vorinostat -0.025 | citarinostat 0.032 | silmitasertib 0.034 | [10] 0.012 | [11] -0.062

CAVIN2 (UniProt O95810)
inactive: bafetinib 0.091 | [1] 0.011 | nilotinib 0.02 | [2] 0.086 | dasatinib 0.013 | [3] -0.048 | [4] -0.087 | [5] -0.058 | tipifarnib 0.028 | mubritinib -0.034 | [6] 0.048 | [7] -0.014 | [8] -0.002 | [9] 0.051 | entinostat 0.003 | vorinostat 0.009 | citarinostat 0 | silmitasertib 0.023 | [10] 0.103 | [11] -0.17

CCT8 (UniProt P50990)
inactive: bafetinib 0.009 | [1] 0.007 | nilotinib -0.052 | [2] 0.013 | dasatinib -0.003 | [3] 0.01 | [4] -0.001 | [5] 0.006 | tipifarnib 0.019 | mubritinib 0.013 | [6] 0.019 | [7] 0.009 | [8] -0.019 | [9] 0.015 | entinostat 0.005 | vorinostat 0.029 | citarinostat 0.015 | silmitasertib -0.024 | [10] 0.009 | [11] -0.021

CD53 (UniProt P19397)
active: [1] -0.418
inactive: bafetinib 0.091 | nilotinib 0.069 | [2] 0.002 | dasatinib 0.078 | [3] -0.003 | [4] 0.145 | [5] 0.125 | tipifarnib 0.057 | mubritinib 0.081 | [6] -0.15 | [7] 0.196 | [8] 0.133 | [9] 0.014 | entinostat -0.044 | vorinostat -0.219 | citarinostat 0.013 | silmitasertib -0.046 | [10] -0.037 | [11] -0.12

CASTOR2 (UniProt A6NHX0)
inactive: bafetinib -0.063 | [1] 0.019 | nilotinib 0.011 | [2] 0.02 | dasatinib -0.024 | [3] -0.039 | [4] -0.019 | [5] -0.032 | tipifarnib -0.311 | mubritinib -0.032 | [6] 0.076 | [7] 0.113 | [8] -0.034 | [9] 0.06 | entinostat -0.072 | vorinostat 0.056 | citarinostat 0.04 | silmitasertib -0.03 | [10] -0.005 | [11] 0.076

CD81 (UniProt P60033)
inactive: bafetinib 0.089 | [1] -0.026 | nilotinib 0.051 | [2] 0.016 | dasatinib 0.079 | [3] -0.015 | [4] 0.108 | [5] 0.131 | tipifarnib 0.041 | mubritinib 0.05 | [6] -0.051 | [7] 0.222 | [8] 0.21 | [9] 0.231 | entinostat -0.028 | vorinostat -0.074 | citarinostat 0.065 | silmitasertib 0.052 | [10] 0.066 | [11] -0.166

CC2D1B isoform 2 (UniProt Q5T0F9)
inactive: bafetinib -0.004 | [1] -0.008 | nilotinib -0.025 | [2] -0.074 | dasatinib -0.067 | [3] 0.043 | [4] 0.064 | [5] 0.017 | tipifarnib 0.013 | mubritinib 0.069 | [6] -0.045 | [7] 0.004 | [8] -0.019 | [9] -0.023 | entinostat -0.026 | vorinostat 0.003 | citarinostat -0.025 | silmitasertib -0.003 | [10] -0.196 | [11] -0.043

CCDC88A (UniProt Q3V6T2)
inactive: bafetinib 0.048 | [1] -0.126 | nilotinib -0.351 | [2] 0.092 | dasatinib -0.073 | [3] -0.293 | [4] -0.105 | [5] -0.048 | tipifarnib -0.012 | mubritinib -0.023 | [6] -0.384 | [7] -0.183 | [8] -0.132 | [9] -0.048 | entinostat -0.121 | vorinostat 0.023 | citarinostat -0.034 | silmitasertib 0.113 | [10] -0.125 | [11] -0.02

CCNB2 (UniProt O95067)
inactive: bafetinib -0.016 | [1] 0.033 | nilotinib 0.133 | [2] -0.186 | dasatinib -0.056 | [3] -0.108 | [4] 0.063 | [5] -0.014 | tipifarnib -0.05 | mubritinib 0.194 | [6] -0.035 | [7] -0.095 | [8] -0.015 | [9] -0.005 | entinostat 0.041 | vorinostat 0.027 | citarinostat -0.022 | silmitasertib 0.008 | [10] -0.164 | [11] 0.308

CARM1 (UniProt Q86X55)
inactive: bafetinib -0.042 | [1] -0.005 | nilotinib -0.014 | [2] 0.004 | dasatinib 0.015 | [3] -0.006 | [4] 0.021 | [5] 0.031 | tipifarnib -0.023 | mubritinib 0.045 | [6] -0.008 | [7] 0.01 | [8] -0.03 | [9] 0.002 | entinostat -0.009 | vorinostat 0.009 | citarinostat 0.041 | silmitasertib -0.007 | [10] -0.04 | [11] -0.019
